Data reported in patent US20240317809A1, “Engineered Antimicrobial Peptides and Usage Thereof” (University of Pittsburgh-Of the Commonwealth System of …, priority 2021, published 2024).
Several values for one entry are separate records, joined by “and”; a condition that tells them apart may be missing. Equal entries are not always repeated. Entries after “also recorded” stand apart in the source; their conditions may differ. Part of at least one peptide drawing is inferred or uncertain, most often the ends. For part of these data: For at least one compound, name, drawing or mass did not settle the structure. Peptide text beside a SMILES is read from it.

Tests used:
E. coli [1] = assay: MIC, CLSI protocol, planktonic ESKAPE pathogens; type: cell-based; conditions: N=8
Experimental: (§1) Standard Clinical and Laboratory Standards Institute (CLSI) protocol was used to measure the minimum inhibitory concentration (MIC) against each organism. Biofilm model: Implant material was prepared from 0.6 mm diameter stainless steel Kirschner wire and plated at 0.5×10^6 CFU/ml. Mature biofilm developed over 48 hours, wires were washed, and then treated with 1 mg/mL WLBU-2 (SEQ ID: 10) in PBS (pH 7.4) for 5, 15, and 30 minutes. Quantitative culture (colony forming unit, CFU) analysis was then completed.
(§2) ESKAPE pathogens were selected from a large clinical library of MDR and non-MDR organisms (n>100 organism). […] At 15 minutes, organisms had greater than a 3 log reduction in biofilm mass (E. faecium: 3 log 10; S. aureus: 5 log 10; K. pneumoniae 6 log 10; A. baumannii 5 log 10; P. aeruginosa 8 log 10; E. cloacae 7 log 10; E. coli 5 log 10).

bacterial burden [2] = assay: Ex vivo treatment of infection with rabbit PJI model, CFU analysis; type: cell-based; conditions: Group 2 (implant treated ex vivo, 1 mg/ml, 15 minutes) vs untreated Group 1
bacterial burden [3] = assay: In vivo treatment of infection with rabbit PJI model, CFU analysis; conditions: for bone bacterial burden (CFU analysis) / total CFU (implant and bone), bacterial burden: vs untreated Group 1
bacterial burden [4] = assay: Survival study with rabbit PJI model; type: in vivo
Experimental: In the following Examples 1-5, the administered WLBU-2 formulations were prepared as described in this paragraph. Exemplary pharmaceutical formulations comprising WLBU-2 were prepared at concentrations of 0.5 mg/mL and 1.0 mg/mL in vehicle (dPBS), by formulating under aseptic conditions. WLBU-2 was added while mixing to approximately 90% of volume with vehicle, and mixed until the solution was clear. The solution was adjusted to pH 7.4 using a 1% NaOH solution. dPBS was added quantity sufficient to final volume. The final pH of the solution was read and recorded.
This example illustrates the antibacterial activity an exemplary formulation of WLBU-2, beta lactam antibiotic, and in combination in reducing CFU in vivo with varying concentrations and time of exposure.
A bone tunnel in the tibial canal was created using a drill with a 1.2 mm or 1.6 mm tungsten carbide drill bit. The bone tunnel was then dried and treated to simulate acute human PJI following primary arthroplasty. A Kirschner wire implant was placed in the bone tunnel and the wound closed. Prior to closure of the superficial skin layer, 0.1 mL of 2×10^6 planktonic bacteria (CFU/rabbit) in saline was injected into the joint space. A closure was performed, and a biofilm was allowed to become established over a period of 2 days.
In each group, the joint space was reopened and treated with I&D at 2 days post-infection. […]

A. baumannii [5] = assay: MIC, CLSI protocol, planktonic ESKAPE pathogens; type: cell-based, Acinetobacter baumannii; conditions: N=24
Experimental: as §1, §2

E. cloacae [6] = assay: MIC, CLSI protocol, planktonic ESKAPE pathogens; type: cell-based; conditions: N=2
Experimental: as §1, §2

E. faecium = assay: Biofilm model on Kirschner wire implant material, CFU analysis; type: cell-based, Enterococcus faecium; conditions: MDR isolates, mature 48 hours biofilm on stainless steel wire, 1 mg/mL in PBS pH 7.4, 15 minutes
S. aureus = assay: as above; type: cell-based, Staphylococcus aureus; conditions: MDR isolates, mature 48 hours biofilm on stainless steel wire, 1 mg/mL in PBS pH 7.4, 15 minutes
K. pneumoniae = assay: as above; type: cell-based, Klebsiella pneumoniae; conditions: MDR isolates, mature 48 hours biofilm on stainless steel wire, 1 mg/mL in PBS pH 7.4, 15 minutes
A. baumannii [7] = assay: as above; type: cell-based, Acinetobacter baumannii; conditions: MDR isolates, mature 48 hours biofilm on stainless steel wire, 1 mg/mL in PBS pH 7.4, 15 minutes
P. aeruginosa = assay: as above; type: cell-based, Pseudomonas aeruginosa; conditions: MDR isolates, mature 48 hours biofilm on stainless steel wire, 1 mg/mL in PBS pH 7.4, 15 minutes
E. cloacae [8] = assay: as above; type: cell-based; conditions: MDR isolates, mature 48 hours biofilm on stainless steel wire, 1 mg/mL in PBS pH 7.4, 15 minutes
E. coli [9] = assay: as above; type: cell-based; conditions: MDR isolates, mature 48 hours biofilm on stainless steel wire, 1 mg/mL in PBS pH 7.4, 15 minutes
[10] = tested on: gram-positive and gram-negative bacteria on infected prostheses; assay: Human patient knee explant study (Example 5), ex vivo CFU analysis, all implants; type: cell-based; conditions: 1 mg/mL in dPBS pH 7.4, 15 minutes
Experimental: (§3) Patients diagnosed with chronic PJI were prospectively enrolled (n=17). All patients met the diagnosis of PJI as defined by the 2018 International Consensus Meeting criteria. The implant was first washed with 50 ml Dulbecco's PBS (dPBS) and submerged ex vivo in an expected clinical exposure of 1 mg/mL WLBU-2 (SEQ ID: 10) in Dulbecco's PBS (dPBS) adjusted to pH 7.4 for 15 minutes. After treatment, the sample was washed with 50 mL of dPBS and sonicated in PBS containing 1% Tween 20 for 5 minutes. After sonication, 100 microliters of the implant sonication fluid was serially diluted, and plated for quantitative culture (CFU analysis). The remaining explanted implant from the same patient served as a control and was processed similarly but without exposure to WLBU-2 (SEQ ID: 10).

E. coli [11] = assay: Human patient knee explant study (Example 5), ex vivo CFU analysis; type: cell-based; conditions: 1 mg/mL in dPBS pH 7.4, 15 minutes
Experimental: as §3

E. faecalis [12] = assay: as above; type: cell-based; conditions: 1 mg/mL in dPBS pH 7.4, 15 minutes
Experimental: as §3

[13] = tested on: Haemophilus parainfluenzae; assay: as above; type: cell-based; conditions: 1 mg/mL in dPBS pH 7.4, 15 minutes
Experimental: as §3

S. aureus (MRSA) [14] = assay: as above; type: cell-based; conditions: 1 mg/mL in dPBS pH 7.4, 15 minutes
Experimental: as §3

S. aureus (MSSA) = assay: as above; type: cell-based; conditions: 1 mg/mL in dPBS pH 7.4, 15 minutes
Experimental: as §3

S. caprae [15] = assay: as above; type: cell-based; conditions: 1 mg/mL in dPBS pH 7.4, 15 minutes
Experimental: as §3

S. dysgalactiae = assay: as above; type: cell-based; conditions: 1 mg/mL in dPBS pH 7.4, 15 minutes
Experimental: as §3

S. hemolyticus [16] = assay: as above; type: cell-based; conditions: 1 mg/mL in dPBS pH 7.4, 15 minutes
Experimental: as §3

[17] = tested on: Gram-positive and -negative bacteria from removed prosthetics; assay: Human patient knee explant study (Example 6, 21 patients), ex vivo CFU enumeration, all prosthetics; type: cell-based; conditions: 1 mg/mL in PBS pH 7.40, 15 minutes
S. aureus (MRSA) [18] = assay: Human patient knee explant study (Example 6), ex vivo CFU enumeration; type: cell-based; conditions: human knee prosthetic, 1 mg/mL in PBS pH 7.40, 15 minutes
S. hemolyticus [19] = assay: as above; type: cell-based; conditions: human knee prosthetic, 1 mg/mL in PBS pH 7.40, 15 minutes
S. caprae [20] = assay: as above; type: cell-based; conditions: human knee prosthetic, 1 mg/mL in PBS pH 7.40, 15 minutes
H. parainfluenzae = assay: as above; type: cell-based; conditions: human knee prosthetic, 1 mg/mL in PBS pH 7.40, 15 minutes
E. faecalis [21] = assay: as above; type: cell-based; conditions: human knee prosthetic, 1 mg/mL in PBS pH 7.40, 15 minutes
[22] = Group 2: 1.0 mg/ml for 15 minutes
[23] = Group 5: 0.5 mg/ml for 15 minutes

C[C@@H](O)[C@H]1C(=O)N2C(C(=O)O)=C(SCCN=CN)C[C@H]12 [IPM, imipenem]
minimum inhibitory concentration (MIC) (E. coli [1]): 4->8

CC(C)[C@H](NC(=O)[C@H](Cc1c[nH]c2ccccc12)NC(=O)[C@H](CCCNC(=N)N)NC(=O)[C@H](CCCNC(=N)N)NC(=O)[C@@H](NC(=O)[C@@H](NC(=O)[C@H](CCCNC(=N)N)NC(=O)[C@@H](NC(=O)[C@@H](NC(=O)[C@H](CCCNC(=N)N)NC(=O)[C@H](CCCNC(=N)N)NC(=O)[C@H](Cc1c[nH]c2ccccc12)NC(=O)[C@@H](NC(=O)[C@H](CCCNC(=N)N)NC(=O)[C@H](CCCNC(=N)N)NC(=O)[C@@H](NC(=O)[C@H](CCCNC(=N)N)NC(=O)[C@H](CCCNC(=N)N)NC(=O)[C@@H](NC(=O)[C@H](Cc1c[nH]c2ccccc12)NC(=O)[C@H](CCCNC(=N)N)NC(=O)[C@@H](N)CCCNC(=N)N)C(C)C)C(C)C)C(C)C)C(C)C)C(C)C)C(C)C)C(C)C)C(=O)N[C@@H](CCCNC(=N)N)C(=O)N[C@@H](CCCNC(=N)N)C(=O)O [WLBU-2, RRWVRRVRRVWRRVVRVVRRWVRR] (H-RRWVRRVRRVWRRVVRVVRRWVRR-OH)
bacterial burden of bone samples (CFU analysis) (bacterial burden [2]): no significant difference | total CFU (implant and bone), total bacterial burden (bacterial burden [2]): decreased bacterial burden; also recorded: significant difference | bone bacterial burden (CFU analysis) (bacterial burden [3]; [22]): no significant differences | total CFU (implant and bone), bacterial burden (bacterial burden [3]; [22]): no significant differences | implant bacterial burden (CFU analysis) (bacterial burden [3]; Group 2: I&D then 2 ml at 1.0 mg/ml for 15 minutes, 2 days post-infection): decreased bacterial burden; also recorded: significantly greater reduction in bacterial burden in comparison to Group 5 | bone bacterial burden (CFU analysis) (bacterial burden [3]; Group 3: 1.0 mg/ml for 7.5 minutes): decreased bacterial burden; also recorded: no significant differences | implant bacterial burden (CFU analysis) (bacterial burden [3]; Group 3: I&D then 2 ml at 1.0 mg/ml for 7.5 minutes): decreased bacterial burden | bone bacterial burden (CFU analysis) (bacterial burden [3]; Group 4: 1.0 mg/ml for 5 minutes): decreased bacterial burden; also recorded: no significant differences | implant bacterial burden (CFU analysis) (bacterial burden [3]; Group 4: I&D then 2 ml at 1.0 mg/ml for 5 minutes): decreased bacterial burden | bone bacterial burden (CFU analysis) (bacterial burden [3]; [23]): decreased bacterial burden; also recorded: no significant differences | total CFU (implant and bone), bacterial burden (bacterial burden [3]; [23]): no significant differences | implant bacterial burden (CFU analysis) (bacterial burden [3]; Group 5: I&D then 2 ml at 0.5 mg/ml for 15 minutes): decreased bacterial burden | body weight as a function of days post infection (bacterial burden [4]; I&D 2 days post-infection, cefazolin 10 mg/kg sc BID 5 days and/or WLBU-2 2 ml at 1 mg/ml 15 minutes): No significance | survival rates of rabbits as a function of days post-infection (bacterial burden [4]; observed up to 14 days (Group 4: 28 days), vs untreated Group 1): slightly improved survival in comparison to Group 1 | minimum inhibitory concentration (MIC) (A. baumannii [5]): .25-0.5 | minimum inhibitory concentration (MIC) (E. cloacae [6]): 2-4 | minimum inhibitory concentration (MIC) (E. coli [1]): 1-4 | reduction in biofilm mass (E. faecium): 3 log 10 | reduction in biofilm mass (S. aureus): 5 log 10 | reduction in biofilm mass (K. pneumoniae): 6 log 10 | reduction in biofilm mass (A. baumannii [7]): 5 log 10 | reduction in biofilm mass (P. aeruginosa): 8 log 10 | reduction in biofilm mass (E. cloacae [8]): 7 log 10 | reduction in biofilm mass (E. coli [9]): 5 log 10 | infected implants culture negative after treatment [10]: 10 of the 18 | reduction of bacterial burden of gram-positive and gram-negative bacteria ([10]; explanted implants of chronic PJI patients): > 3 log | CFU/mL treated (E. coli [11]): 30 CFU/mL and 60 CFU/mL | CFU/mL treated (E. faecalis [12]): 10 CFU/mL | CFU/mL treated [13]: 0 CFU/mL | CFU/mL treated (S. aureus (MRSA) [14]): 0 CFU/mL | CFU/mL treated (S. aureus (MSSA)): 1.3 × 10^2 CFU/mL | CFU/mL treated (S. caprae [15]): 0 CFU/mL | CFU/mL treated (S. dysgalactiae): 60 CFU/mL | CFU/mL treated (S. hemolyticus [16]): 0 CFU/mL | mean reduction in CFU counts ([17]; vs prosthetics not exposed): 4 log10 | chronically infected prosthetics that became culture negative ([17]; treated ex vivo): 12/21 | CFU/mL treated (S. aureus (MRSA) [18]): 0 CFU/mL | CFU/mL treated (S. hemolyticus [19]): 0 CFU/mL | CFU/mL treated (S. caprae [20]): 0 CFU/mL | CFU/mL treated (H. parainfluenzae): 0 CFU/mL | CFU/mL treated (E. faecalis [21]): 10 CFU/mL
